Assay results published in PMC7660922.
No constants are given. Whether binding was seen depends on the method and setting. In cells and extracts the contact can be indirect. These calls come from enrichment with a bait or labelling near it, and not all partners need be listed.

Target: GFP-APC3 (Drosophila)
Test: affinity purification with mass spectrometry; GFP affinity purification (GFP-trap nanobeads) from lysates of 0-2 h Drosophila embryos (for GFP-APC3 also from CycB3^+/+ and CycB3^2/+ mothers); LC-MS

binding	Binder
binds	Cortex (protein, UniProt Q960N3 1-483) MFVEMSVCDSPNKNSKLDKKSLTPFKKVRRKNWKQEAAYKSDTSKGQEVSYVGERFIPNRFERENIEFNLKYIGKRKERDILETGVTLTASYWRQSGFISNINRTFGIGERRLFQFSSQQGTRSRVVDNDSADSDWPCNPRARPYAIQNATHEMPGICSPVDYNMMDWSSGGMVAMSSGQDVMLWRNLDESTMVFSVESPTSLKYSPDGKHLAIGCMDRNYPVLDLWEVRSPTEFLVSYRKLFFKSMGYISCIEWSHDGKEVICGTQCGVIIVLAMPTLNTLMQLREHRHTVKKMKFAPTHKYFASSDTDGKIFIFDAVLKVRLLKLDGRSIVFDWHPWTGEDLAVAERSPASIFIFNIPRRQFVASYRRRDDRIVIKTLTYSKITGELLVNVIRRDDADLAVCEILVLASLNRVVDLMSHQDRGTLFLMWNPDGTKIATGGLDDTFSLWNFFPTYKREAILRKQEQKAKDKCSSLSLYKGIR
binds	Fizzy/Cdc20 (protein, UniProt Q24044 1-526) MSQFNFVSDLQNALIMDGETRGPAPRWKKKLEASLNGSVNTTRSVLSVSYNTSFSGVQAPTKTPGKSSEGKTKKSNTTPSKTPGGGDRFIPNRAATNFELAHFLVNKDSGDKSDEENDKATSSNSNESNVQASAHKGDRQKLISEVAQVGDSKGGRILCYQNKAPAAPETHNNPLKVVYSIKTPISTKSGSRYIPTTSERILDAPDFINDYYLNLMDWSADNIVAVALGSCVYLWNAQTGNIEQLTEFEEGDYAGSLSWIQEGQILAIGNSTGAVELWDCSKVKRLRVMDGHSARVGSLAWNSFLVSSGSRDGTIVHHDVRAREHKLSTLSGHTQEVCGLKWSTDFKYLASGGNDNLVNVWSAASGGVGTATDPLHKFNDHQAAVRALAWCPWQPSTLASGGGTADRCIKFWNVNNGTLMKSVDSKSQVCSLLFSRHYKELISAHGFANNQLTIWKYPTMVKQADLTGHTSRVLQMAMSPDGSTVISAGADETLRLWNCFAPDPLASKKAVSTSKGKQSVFRQSIR
